Measured values as given in patent US11013249B2, “Compositions for controlled release of volatile compounds” (University of Guelph, priority 2016, dated 2021).

System: mung bean sprouts
Experiment: Mung bean sprouts sealed in 1 L glass jars with antimicrobial compounds at 4° C.
Design: species or system Mung bean (Vigna radiata)
Details: low concentration: AITC <1.5 mg/L, diacetyl <8 mg/L

## C=CCN=C=S [AITC, Allyl isothiocyanate]
  respiration rates of the sprouts: higher than the untreated control
